{
  "sequences": {"note": "By UniProt entry, the sequences of proteins in these tests, tags left out. Where a name states a change or a piece, a line headed by the entry shows the natural chain unless it says otherwise. Chains listed by the source or under a name are the forms on record and can include a tag or linker.", "human Claudin 18.2 (hCLDN18.2) on stably-transfected HEK293 cells (P56856, form named)": "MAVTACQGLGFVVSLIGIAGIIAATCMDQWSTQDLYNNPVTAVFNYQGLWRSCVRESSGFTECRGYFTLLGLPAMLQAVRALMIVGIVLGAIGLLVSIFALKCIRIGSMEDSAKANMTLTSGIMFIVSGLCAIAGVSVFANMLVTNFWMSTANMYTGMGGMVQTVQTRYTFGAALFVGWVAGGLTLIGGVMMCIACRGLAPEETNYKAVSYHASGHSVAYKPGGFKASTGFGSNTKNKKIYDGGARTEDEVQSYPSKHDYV"},
  "source": "patent US20240010748A1",
  "binders": {"B1": {"name": "h160C9AA (antibody, human IgG1, lambda, L234A L235A, V domains shown)", "VH": "EVKLVESGGGLVQPGGSLKLSCAASGFTFNTYAMNWVRQAPGKGLEWVARIRSKYNNYATYYADSVKDRFTISRDDAKNTLYLQMNNLRTEDTAVYYCVRHGNFGNSYVSWFAYWGQGTLVTVSS", "VL": "QAVVTQEPSLTVSPGGTVTLTCRSSTGAVTTSNYANWVQQKPGQAPRGLIGGTNKRAPGTPARFSGSLLGGKAALTLSGAQPEDEAEYYCALWYSNLWVFGGGTKLTVLG"}},
  "target": "human Claudin 18.2 (hCLDN18.2) on stably-transfected HEK293 cells (human) (UniProt P56856)",
  "assay": "FACS on HEK293-hCLDN18.2 cells, fluorescent anti-human IgG secondary antibody",
  "note": "Results are given in words; binding and its absence hold for the method and conditions named.",
  "data": [
    {"binder": "B1", "values": [
      {"measurement": "binding", "result": "no binding (tested: 1e-7 M (log M -7))"}
    ]}
  ]
}
